{"source": "PubChem BioAssay AID1259425 (University of Nebraska Medical Center, 2018)", "purpose": "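Compare each knockdown with KSR1 silencing using changes in marker transcripts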 (primary screen)", "system": "HCT116 human colon cancer cells", "knock-down reagent": "siRNA pool against human genes, 50 nM siRNA", "measured": "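mRNA of six signature genes measured together by branched-DNA assay after 50 nM siRNA pool, blank removed, divided by geometric mean of two housekeeping genes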", "scale": "BNIP3L mRNA: higher = more BNIP3L transcript after knockdown", "note": "The deposit covers about 14,000 reagents; below is a part drawn at random. Further read-outs or replicates are left out here. Not stated in the record: the time to read-out."}
{"gene":"MRGPRX4","BNIP3L mRNA, set 1":0.0988}
{"gene":"CACNA1A","BNIP3L mRNA, set 1":0.194}
{"gene":"ZNF329","BNIP3L mRNA, set 1":0.12}
{"gene":"MGP","BNIP3L mRNA, set 1":0.074}
{"gene":"HLA-C","BNIP3L mRNA, set 1":0.0695}
{"gene":"SLC66A1","BNIP3L mRNA, set 1":0.132}
{"gene":"ALKBH6","BNIP3L mRNA, set 1":0.1}
{"gene":"SLC6A20","BNIP3L mRNA, set 1":0.11}
{"gene":"HDDC2","BNIP3L mRNA, set 1":0.0957}
{"gene":"ATP4A","BNIP3L mRNA, set 1":0.0817}
{"gene":"RAB28","BNIP3L mRNA, set 1":0.0792}
{"gene":"PA2G4","BNIP3L mRNA, set 1":0.0861}
{"gene":"CHRND","BNIP3L mRNA, set 1":0.0587}
{"gene":"MS4A2","BNIP3L mRNA, set 1":0.19}
{"gene":"ZSCAN5A","BNIP3L mRNA, set 1":0.192}
{"gene":"PPIC","BNIP3L mRNA, set 1":0.112}
{"gene":"LCP2","BNIP3L mRNA, set 1":0.161}
{"gene":"ASXL2","BNIP3L mRNA, set 1":0.111}
{"gene":"ZNF436","BNIP3L mRNA, set 1":0.0657}
{"gene":"ZNF32","BNIP3L mRNA, set 1":0.206}
{"gene":"AQP5","BNIP3L mRNA, set 1":0.086}
{"gene":"MRPL30","BNIP3L mRNA, set 1":0.103}
{"gene":"JAK3","BNIP3L mRNA, set 1":0.126}
{"gene":"LAMA1","BNIP3L mRNA, set 1":0.124}
{"gene":"TSPYL5","BNIP3L mRNA, set 1":0.113}
{"gene":"BAD","BNIP3L mRNA, set 1":0.197}
{"gene":"PSPH","BNIP3L mRNA, set 1":0.0686}
{"gene":"CDC20","BNIP3L mRNA, set 1":0.0856}
{"gene":"H3C12","BNIP3L mRNA, set 1":0.0768}
{"gene":"SPATA7","BNIP3L mRNA, set 1":0.128}
{"gene":"ATG16L1","BNIP3L mRNA, set 1":0.172}
{"gene":"DDX56","BNIP3L mRNA, set 1":0.186}
{"gene":"FAM234B","BNIP3L mRNA, set 1":0.0728}
{"gene":"RPIA","BNIP3L mRNA, set 1":0.124}
{"gene":"C14orf93","BNIP3L mRNA, set 1":0.137}
{"gene":"CYTL1","BNIP3L mRNA, set 1":0.0503}

Sorted by “BNIP3L mRNA, set 1” (ascending): some entries from above
{"gene":"H3C12","BNIP3L mRNA, set 1":0.0768}
{"gene":"SPATA7","BNIP3L mRNA, set 1":0.128}
